At least one compound was matched to its structure with a doubt left.
Columns and labels:
TS217 cells [1] = experiment: Western blot of alpha-synuclein expression after tetracycline induction; format: cell-based, human; conditions: 0.1 μg/mL tetracycline, 1 day post-induction
TS217 cells [2] = conditions: different concentrations of tetracycline, six days, 96 well plates
Protocol: To determine the effect of overexpression of wild-type alpha-synuclein on cell viability using the stable, inducible system, TS217 cells were treated with 0.1 μg/mL tetracycline for three to six days to induce expression of alpha-synuclein. The relative viability of the cells was assessed at one day intervals (day 3, day 4, day 5, and day 6) by measuring the cellular ATP level in cell lysates using a ViaLight® Plus Bioassay kit (Cambrex, Rockland, Me.). Relative cell viability was calculated as the ratio of induced cells to control cells (cells not treated with tetracycline), as an indication of alpha-synuclein-induced cytotoxicity (see FIG. 3).
To determine whether the effect of tetracycline on cell viability was concentration-dependent, TS217 cells grown in 96 well plates were incubated with different concentrations of tetracycline for six days. Following treatment, each of the experimental cell groups were lysed and the cellular ATP measured as described above. Media with the vehicle alone (no tetracycline) served as control (FIG. 5). […]

CN(C)[C@@H]1C(O)=C(C(N)=O)C(=O)[C@@]2(O)C(O)=C3C(=O)c4c(O)cccc4[C@@](C)(O)[C@H]3C[C@@H]12 [tetracycline]
Expression of alpha-synuclein increased (TS217 cells [1]): at least two-fold
Relative cell viability as a function of ATP concentration, concentration-response (TS217 cells [2]): decreased with increasing concentrations of tetracycline in a dose-dependent manner
